Measured values taken from publication PMC10517016, “SCARB2 drives hepatocellular carcinoma tumor initiating cells via enhanced MYC transcriptional activity” (Nature Communications, 2023).
No constants are given. Whether binding was seen depends on the method and setting. A result given as binding can be weak or reduced; the word gives no strength. For some assays here: In cells and extracts the contact can be indirect.

Amino acid sequences for entries named in this document (tags omitted). A change or cut given only in a name is not applied to a line headed by its entry.
UniProt Q14108: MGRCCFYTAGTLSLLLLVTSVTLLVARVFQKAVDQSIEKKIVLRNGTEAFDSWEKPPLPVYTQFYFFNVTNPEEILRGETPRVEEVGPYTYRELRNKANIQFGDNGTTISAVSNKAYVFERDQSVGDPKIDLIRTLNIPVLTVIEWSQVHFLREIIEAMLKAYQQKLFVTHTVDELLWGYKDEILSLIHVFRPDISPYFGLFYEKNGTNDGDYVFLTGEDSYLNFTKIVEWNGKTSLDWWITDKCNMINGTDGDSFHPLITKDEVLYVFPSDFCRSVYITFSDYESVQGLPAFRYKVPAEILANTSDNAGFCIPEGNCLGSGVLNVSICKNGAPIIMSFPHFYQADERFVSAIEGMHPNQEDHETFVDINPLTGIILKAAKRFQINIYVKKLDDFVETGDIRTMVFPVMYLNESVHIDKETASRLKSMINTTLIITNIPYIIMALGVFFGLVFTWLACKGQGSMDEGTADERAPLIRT
UniProt P01106: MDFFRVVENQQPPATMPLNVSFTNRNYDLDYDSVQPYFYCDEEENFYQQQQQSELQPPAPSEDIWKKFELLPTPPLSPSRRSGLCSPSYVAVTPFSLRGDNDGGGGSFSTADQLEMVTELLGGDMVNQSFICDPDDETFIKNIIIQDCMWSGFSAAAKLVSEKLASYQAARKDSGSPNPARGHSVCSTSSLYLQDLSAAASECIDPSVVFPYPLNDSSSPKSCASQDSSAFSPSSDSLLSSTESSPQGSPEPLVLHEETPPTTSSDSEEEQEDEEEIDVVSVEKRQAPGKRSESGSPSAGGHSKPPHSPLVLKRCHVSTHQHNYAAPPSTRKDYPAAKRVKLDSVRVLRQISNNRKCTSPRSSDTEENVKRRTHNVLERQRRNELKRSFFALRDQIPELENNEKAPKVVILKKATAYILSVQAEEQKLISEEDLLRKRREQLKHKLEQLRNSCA

Columns and labels:
[1] = molecular target: Purified His-tagged SCARB2 (UniProt Q14108); test: SPR; BIAcore T200; SCARB2 protein immobilised on a CM5 chip; SCARB2-MYC interaction with or without PMB; both purified
[2] = molecular target: Purified His-tagged SCARB2 (UniProt Q14108); test: co-IP; in vitro: 5 ug of each purified protein mixed in 100 ul of 1% NP-40, 120 mM NaCl, 40 mM tris-HCl pH 7.4, 1.5 mM sodium orthovanadate, 50 mM sodium fluoride, 10 mM sodium pyrophosphate, protease inhibitors, 6 h at 4 °C, then immunoprecipitation; both purified

**Q.** With “Purified His-tagged MYC (from UniProt P01106 1-454)” as the substance, how does the binding [1] read?
**A.** Its binding is “binds”.

**Q.** What about the binding [2] of the same substance?
**A.** The binding was “binds”.
